US12306164B2, “Therapeutic drug for lipid-peroxidation-induced diseases and screening method for therapeutic drugs for lipid-peroxidation-induced diseases” (FUSO PHARMACEUTICAL INDUSTRIES, LTD., priority 2017, dated 2025)
Entries after “also recorded” stand apart in the source; their conditions may differ.

Tests used:
[1] = test system: lipid peroxidation reaction; test: Responsiveness of profluorescent nitroxide probe to lipid peroxidation reaction (liposomes + AAPH); settings: 5.0 μM probe, 20 mM AAPH, after 40 minutes
[2] = Reactivity of profluorescent nitroxide probe with various oxidants; settings: liposomes and AAPH (10 mM), after 30 minutes

| SMILES | fluorescence intensity increase compared to that in the case without AAPH [1] | responsiveness to lipid peroxidation reaction [2] |
| --- | --- | --- |
| CN(C)c1cccc2c(S(=O)(=O)NC3CC(C)(C)N([O])C(C)(C)C3)cccc12 [Dansyl-TEMPO, 2,2,6,6-Tetramethyl-4-(5-(dimethylamino)naphthalene-1-sulfonylamino)piperidin-1-oxyl] | 1.4 fold |  |
| CCC1(CC)CC(Nc2ccc([N+](=O)[O-])c3nonc23)CC(CC)(CC)N1O [NBD-TEEPO, 2,2,6,6-tetraethyl-4-(4-nitrobenzo[1,2,5]oxadiazol-7-ylamino)piperidin-1-oxyl] |  | advantages in responsiveness; also recorded: high responsiveness |
| CC1(C)CC(Nc2ccc([N+](=O)[O-])c3nonc23)CC(C)(C)N1[O] [NBD-TEMPO, 2,2,6,6-Tetramethyl-4-(4-nitrobenzo[1,2,5]oxadiazol-7-ylamino)piperidin-1-oxyl] | 8.2 times |  |
